No constants are given. Whether binding was seen depends on the method and setting. For some of these results: Binding seen in cells or lysates may run through a third protein. Some binding calls cover weakened binding; strength is not graded here. For some of these results: Where a sequence is shown, tags or fusion partners need not be part of it. Blank lines part the entries; values can stand above or below the molecule they belong to.
What was measured:
[1] = molecular target: T1, β10-Cdc12 (budding yeast (S. cerevisiae)) (UniProt P32468); test: split reporter
T1 sequence: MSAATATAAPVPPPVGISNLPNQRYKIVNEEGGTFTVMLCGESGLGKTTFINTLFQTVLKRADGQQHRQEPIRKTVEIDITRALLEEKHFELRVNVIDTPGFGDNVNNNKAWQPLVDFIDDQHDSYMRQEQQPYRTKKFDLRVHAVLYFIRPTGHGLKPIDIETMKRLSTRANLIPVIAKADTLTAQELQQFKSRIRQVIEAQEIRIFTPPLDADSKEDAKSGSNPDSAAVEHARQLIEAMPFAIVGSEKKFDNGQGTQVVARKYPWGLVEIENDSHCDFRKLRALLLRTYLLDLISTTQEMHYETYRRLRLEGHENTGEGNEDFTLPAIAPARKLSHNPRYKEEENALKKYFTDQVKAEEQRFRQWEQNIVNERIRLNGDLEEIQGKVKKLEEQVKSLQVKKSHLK

Amino acid sequences for entries named in this document (tags omitted).
UniProt P25558: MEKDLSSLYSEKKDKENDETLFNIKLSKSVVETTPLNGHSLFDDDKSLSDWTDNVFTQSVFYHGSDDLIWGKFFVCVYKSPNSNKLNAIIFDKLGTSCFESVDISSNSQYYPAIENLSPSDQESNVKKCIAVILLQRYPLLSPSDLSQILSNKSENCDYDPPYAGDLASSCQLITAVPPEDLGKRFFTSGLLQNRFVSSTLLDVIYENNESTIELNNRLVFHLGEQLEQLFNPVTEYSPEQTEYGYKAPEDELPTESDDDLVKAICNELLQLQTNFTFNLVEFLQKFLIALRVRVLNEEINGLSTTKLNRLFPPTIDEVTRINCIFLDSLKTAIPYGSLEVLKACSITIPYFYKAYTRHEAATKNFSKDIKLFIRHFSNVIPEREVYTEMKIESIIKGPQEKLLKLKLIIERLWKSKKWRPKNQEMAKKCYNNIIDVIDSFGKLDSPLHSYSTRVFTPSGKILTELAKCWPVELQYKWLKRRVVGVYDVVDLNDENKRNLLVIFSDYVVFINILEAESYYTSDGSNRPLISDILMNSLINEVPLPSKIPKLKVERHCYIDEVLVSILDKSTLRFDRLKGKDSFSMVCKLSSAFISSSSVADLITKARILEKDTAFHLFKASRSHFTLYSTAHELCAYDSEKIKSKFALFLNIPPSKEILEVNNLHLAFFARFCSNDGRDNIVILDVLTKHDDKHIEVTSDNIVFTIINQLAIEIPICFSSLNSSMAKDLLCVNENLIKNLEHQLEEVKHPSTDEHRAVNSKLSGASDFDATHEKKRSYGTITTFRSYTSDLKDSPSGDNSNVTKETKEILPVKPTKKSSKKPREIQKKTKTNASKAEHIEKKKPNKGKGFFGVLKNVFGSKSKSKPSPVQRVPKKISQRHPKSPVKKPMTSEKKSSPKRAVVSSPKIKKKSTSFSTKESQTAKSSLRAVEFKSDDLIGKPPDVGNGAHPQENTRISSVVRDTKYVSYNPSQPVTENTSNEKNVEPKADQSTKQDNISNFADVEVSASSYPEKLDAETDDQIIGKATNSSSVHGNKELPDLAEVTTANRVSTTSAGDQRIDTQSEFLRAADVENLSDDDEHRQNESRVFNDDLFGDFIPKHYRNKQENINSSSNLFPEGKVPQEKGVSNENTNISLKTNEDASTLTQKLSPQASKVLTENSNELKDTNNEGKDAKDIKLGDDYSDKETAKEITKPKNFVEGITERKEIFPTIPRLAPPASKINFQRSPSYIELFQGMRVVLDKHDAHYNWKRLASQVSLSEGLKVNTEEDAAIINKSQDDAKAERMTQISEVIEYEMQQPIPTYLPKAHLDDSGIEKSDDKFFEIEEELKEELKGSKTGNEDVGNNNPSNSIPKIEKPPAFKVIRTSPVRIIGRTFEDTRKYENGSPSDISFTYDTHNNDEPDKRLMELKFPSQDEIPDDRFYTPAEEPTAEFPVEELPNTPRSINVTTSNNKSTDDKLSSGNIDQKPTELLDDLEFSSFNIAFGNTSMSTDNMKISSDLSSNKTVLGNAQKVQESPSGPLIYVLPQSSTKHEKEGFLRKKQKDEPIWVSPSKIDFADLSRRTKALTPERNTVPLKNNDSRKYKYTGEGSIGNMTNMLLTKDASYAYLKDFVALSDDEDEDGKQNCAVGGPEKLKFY

[2] = molecular target: T2, β10-Cdc10 (budding yeast (S. cerevisiae)) (UniProt P25342); test: split reporter
T2 sequence: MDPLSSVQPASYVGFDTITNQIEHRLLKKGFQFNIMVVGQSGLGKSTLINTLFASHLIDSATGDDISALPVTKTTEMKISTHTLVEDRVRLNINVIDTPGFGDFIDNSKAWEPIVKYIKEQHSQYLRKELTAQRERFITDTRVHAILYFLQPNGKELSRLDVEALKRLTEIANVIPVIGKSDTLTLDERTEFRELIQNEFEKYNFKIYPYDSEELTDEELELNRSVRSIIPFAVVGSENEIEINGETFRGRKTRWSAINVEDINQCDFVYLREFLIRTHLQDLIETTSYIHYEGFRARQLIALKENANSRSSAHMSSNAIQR

[3] = molecular target: T3, β10-Cdc3 (budding yeast (S. cerevisiae)) (UniProt P32457); test: split reporter
T3 sequence: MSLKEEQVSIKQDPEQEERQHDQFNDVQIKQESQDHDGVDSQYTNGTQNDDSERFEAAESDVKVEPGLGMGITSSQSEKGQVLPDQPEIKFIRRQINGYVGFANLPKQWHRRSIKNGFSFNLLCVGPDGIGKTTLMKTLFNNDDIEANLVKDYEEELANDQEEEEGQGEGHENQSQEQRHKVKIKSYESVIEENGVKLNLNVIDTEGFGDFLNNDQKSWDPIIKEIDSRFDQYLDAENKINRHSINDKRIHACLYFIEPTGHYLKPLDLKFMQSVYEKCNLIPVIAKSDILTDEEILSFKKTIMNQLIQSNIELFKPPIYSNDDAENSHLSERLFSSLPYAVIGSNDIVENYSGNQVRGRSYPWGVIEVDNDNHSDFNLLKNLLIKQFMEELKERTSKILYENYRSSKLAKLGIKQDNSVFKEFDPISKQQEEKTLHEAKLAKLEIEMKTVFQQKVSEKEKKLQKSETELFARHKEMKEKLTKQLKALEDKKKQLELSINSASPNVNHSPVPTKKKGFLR

[4] = molecular target: T4, His6-Cdc3 (budding yeast (S. cerevisiae)) (UniProt P32457); test: tandem affinity co-purification
T4 sequence: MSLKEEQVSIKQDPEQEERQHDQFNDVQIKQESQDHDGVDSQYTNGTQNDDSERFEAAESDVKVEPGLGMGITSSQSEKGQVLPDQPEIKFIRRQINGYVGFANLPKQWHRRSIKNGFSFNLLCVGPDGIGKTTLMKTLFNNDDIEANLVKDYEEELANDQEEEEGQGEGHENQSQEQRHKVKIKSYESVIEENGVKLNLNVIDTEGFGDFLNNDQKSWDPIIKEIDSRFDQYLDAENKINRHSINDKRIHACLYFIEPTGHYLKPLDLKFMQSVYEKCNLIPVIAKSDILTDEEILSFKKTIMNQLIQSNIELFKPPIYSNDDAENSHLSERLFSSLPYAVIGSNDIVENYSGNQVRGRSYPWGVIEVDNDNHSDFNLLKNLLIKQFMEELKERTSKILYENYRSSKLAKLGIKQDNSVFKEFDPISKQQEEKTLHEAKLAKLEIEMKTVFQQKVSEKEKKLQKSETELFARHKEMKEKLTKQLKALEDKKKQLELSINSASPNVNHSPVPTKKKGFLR

[5] = molecular target: T5, Bud4-6Gly-3Flag (budding yeast (S. cerevisiae)) (UniProt P47136); test: co-IP
T5 sequence: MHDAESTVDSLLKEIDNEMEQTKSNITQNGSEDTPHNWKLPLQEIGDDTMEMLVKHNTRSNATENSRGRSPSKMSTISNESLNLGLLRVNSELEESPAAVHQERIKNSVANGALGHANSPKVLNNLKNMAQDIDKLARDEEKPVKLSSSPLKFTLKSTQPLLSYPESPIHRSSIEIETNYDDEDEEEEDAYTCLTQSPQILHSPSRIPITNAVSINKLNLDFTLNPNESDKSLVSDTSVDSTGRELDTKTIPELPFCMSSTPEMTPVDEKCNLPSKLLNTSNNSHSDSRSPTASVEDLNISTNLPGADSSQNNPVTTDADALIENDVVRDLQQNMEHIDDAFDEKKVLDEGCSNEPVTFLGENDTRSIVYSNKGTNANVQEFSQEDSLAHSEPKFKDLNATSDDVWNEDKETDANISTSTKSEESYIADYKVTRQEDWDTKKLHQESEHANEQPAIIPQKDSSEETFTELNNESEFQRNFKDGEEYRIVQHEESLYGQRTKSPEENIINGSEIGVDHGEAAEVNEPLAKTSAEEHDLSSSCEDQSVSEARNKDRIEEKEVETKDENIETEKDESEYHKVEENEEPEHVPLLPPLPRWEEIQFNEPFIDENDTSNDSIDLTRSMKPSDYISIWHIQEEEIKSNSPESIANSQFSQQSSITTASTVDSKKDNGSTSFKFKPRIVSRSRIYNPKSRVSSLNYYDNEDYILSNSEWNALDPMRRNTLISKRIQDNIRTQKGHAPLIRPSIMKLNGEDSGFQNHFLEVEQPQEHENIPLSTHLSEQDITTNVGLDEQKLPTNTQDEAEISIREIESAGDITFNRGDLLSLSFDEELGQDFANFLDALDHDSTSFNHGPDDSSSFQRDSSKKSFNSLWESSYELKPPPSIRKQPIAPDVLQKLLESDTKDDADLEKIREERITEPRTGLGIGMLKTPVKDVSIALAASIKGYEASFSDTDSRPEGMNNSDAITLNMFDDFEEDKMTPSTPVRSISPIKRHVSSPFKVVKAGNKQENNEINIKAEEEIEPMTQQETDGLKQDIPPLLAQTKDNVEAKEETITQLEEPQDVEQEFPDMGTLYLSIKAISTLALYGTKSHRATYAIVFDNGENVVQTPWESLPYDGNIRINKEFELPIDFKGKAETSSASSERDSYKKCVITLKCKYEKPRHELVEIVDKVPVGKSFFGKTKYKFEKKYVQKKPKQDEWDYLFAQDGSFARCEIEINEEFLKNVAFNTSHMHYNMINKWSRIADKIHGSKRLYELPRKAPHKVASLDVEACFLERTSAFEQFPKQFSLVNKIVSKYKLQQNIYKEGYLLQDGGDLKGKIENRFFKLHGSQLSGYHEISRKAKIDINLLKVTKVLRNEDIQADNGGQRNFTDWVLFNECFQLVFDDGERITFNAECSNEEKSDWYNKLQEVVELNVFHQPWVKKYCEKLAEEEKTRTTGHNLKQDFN

binding [1]: no binding
binding [2]: binds
binding [3]: no binding
Molecule: Bud3-linker(3aa)-GFPβ11 (from UniProt P25558 1-1636)

binding [4]: binds
B1: Cdc10 (protein, UniProt P25342 1-322)
chain: MDPLSSVQPASYVGFDTITNQIEHRLLKKGFQFNIMVVGQSGLGKSTLINTLFASHLIDSATGDDISALPVTKTTEMKISTHTLVEDRVRLNINVIDTPGFGDFIDNSKAWEPIVKYIKEQHSQYLRKELTAQRERFITDTRVHAILYFLQPNGKELSRLDVEALKRLTEIANVIPVIGKSDTLTLDERTEFRELIQNEFEKYNFKIYPYDSEELTDEELELNRSVRSIIPFAVVGSENEIEINGETFRGRKTRWSAINVEDINQCDFVYLREFLIRTHLQDLIETTSYIHYEGFRARQLIALKENANSRSSAHMSSNAIQR

binding [5]: binds
B2: Cdc11 (protein, UniProt P32458 1-415)
chain: MSGIIDASSALRKRKHLKRGITFTVMIVGQSGSGRSTFINTLCGQQVVDTSTTILLPTDTSTEIDLQLREETVELEDDEGVKIQLNIIDTPGFGDSLDNSPSFEIISDYIRHQYDEILLEESRVRRNPRFKDGRVHCCLYLINPTGHGLKEIDVEFIRQLGSLVNIIPVISKSDSLTRDELKLNKKLIMEDIDRWNLPIYNFPFDEDEISDEDYETNMYLRTLLPFAIIGSNEVYEMGGDVGTIRGRKYPWGILDVEDSSISDFVILRNALLISHLHDLKNYTHEILYERYRTEALSGESVAAESIRPNLTKLNGSSSSSTTTRRNTNPFKQSNNINNDVLNPASDMHGQSTGENNETYMTREEQIRLEEERLKAFEERVQQELLLKRQELLQREKELREIEARLEKEAKIKQEE

binding [4]: binds
B3: Cdc11 (recombinant) (protein, UniProt P32458 1-415)
chain: MSGIIDASSALRKRKHLKRGITFTVMIVGQSGSGRSTFINTLCGQQVVDTSTTILLPTDTSTEIDLQLREETVELEDDEGVKIQLNIIDTPGFGDSLDNSPSFEIISDYIRHQYDEILLEESRVRRNPRFKDGRVHCCLYLINPTGHGLKEIDVEFIRQLGSLVNIIPVISKSDSLTRDELKLNKKLIMEDIDRWNLPIYNFPFDEDEISDEDYETNMYLRTLLPFAIIGSNEVYEMGGDVGTIRGRKYPWGILDVEDSSISDFVILRNALLISHLHDLKNYTHEILYERYRTEALSGESVAAESIRPNLTKLNGSSSSSTTTRRNTNPFKQSNNINNDVLNPASDMHGQSTGENNETYMTREEQIRLEEERLKAFEERVQQELLLKRQELLQREKELREIEARLEKEAKIKQEE

binding [4]: binds
B4: Cdc12 (recombinant) (protein, UniProt P32468 1-407)
chain: MSAATATAAPVPPPVGISNLPNQRYKIVNEEGGTFTVMLCGESGLGKTTFINTLFQTVLKRADGQQHRQEPIRKTVEIDITRALLEEKHFELRVNVIDTPGFGDNVNNNKAWQPLVDFIDDQHDSYMRQEQQPYRTKKFDLRVHAVLYFIRPTGHGLKPIDIETMKRLSTRANLIPVIAKADTLTAQELQQFKSRIRQVIEAQEIRIFTPPLDADSKEDAKSGSNPDSAAVEHARQLIEAMPFAIVGSEKKFDNGQGTQVVARKYPWGLVEIENDSHCDFRKLRALLLRTYLLDLISTTQEMHYETYRRLRLEGHENTGEGNEDFTLPAIAPARKLSHNPRYKEEENALKKYFTDQVKAEEQRFRQWEQNIVNERIRLNGDLEEIQGKVKKLEEQVKSLQVKKSHLK

From paper doi:10.1101/2025.10.03.680245 (bioRxiv, 2025)
